Some of the results follow. These are further read-outs of the screen, such as a control signal, another cell line or another target. No call is given for them. The list favours compounds with an active or inconclusive main result. Potencies come from curve fits of mixed quality, noted in brackets.
Assay: qHTS Assay to Find Inhibitors of Chronic Active B-Cell Receptor Signaling
Details: ABC-DLBCL IkBa-CBG/CBR reporter, luminescence ratio (green luciferase fused to IkBa over red control in TMD8 lymphoma cells), 4 h
Outline: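 Compounds up to 46 uM were incubated four hours with TMD8 cells whose green CBG68 luciferase is fused to IkappaBalpha; red CBR luminescence normalised the signal, and concentration-effect curves were fitted to fusion, red and ratio data.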

[1] = measured here: CBR red luminescence, cell number
[2] = measured here: IkBa-CBG green luminescence

| Compound | AC50 [1] | AC50 [2] |
| --- | --- | --- |
| CC(C)(C)c1ccc(C(=O)NCC(=O)N2CCC3(CC2)NCCc2[nH]cnc23)cc1 | 3.16 µM [falling, partial curve, poor fit] | – |
| O=C(Nc1cccc(Cl)c1)C1C2CCC3C(CCC21)C3(Cl)Cl (centres undefined) | 8.2 µM [falling, partial curve, poor fit] | 14.6 µM [rising, partial curve, poor fit] |
| COc1ccc(-c2cc(C(=O)N/N=C/c3ccc(OC)c(COCC(F)(F)C(F)F)c3)c3ccccc3n2)c(OC)c1 | 0.447 µM [rising, full curve, poor fit] | – |
| CCOC(=O)C1=NN(c2ccccc2C)C2=NC(C)=C(C(=O)OC)C(c3cccs3)N12 (centres undefined) | 10.3 µM [falling, partial curve] | 32.6 µM [rising, partial curve, poor fit] |
| Cc1ccc(C)c(CN2CCC(n3nccc3NC(=O)CCCc3ccccc3)CC2)c1 | 3.55 µM [rising, single point] | – |
| COc1ccc(CCNC(=O)c2cccs2)cc1 | 15.8 µM [falling, single point] | – |
| CCS(=O)(=O)N1CCC(C(=O)Oc2ccccc2Cl)CC1 | 22.4 µM [rising, partial curve, poor fit] | – |
| Cc1cc2cc(CN(Cc3cccs3)C(=S)NCc3ccco3)c(=O)[nH]c2cc1C | 6.51 µM [falling, partial curve, poor fit] | – |
| O=C(Oc1oc(-c2ccco2)nc1C=Nc1ccc(Cl)cc1)c1ccco1 | 11.2 µM [falling, partial curve, poor fit] | – |
| Cn1cc(CN2CCN(CCO)CC2)c(-c2ccc(Oc3ccccc3)cc2)n1 | 14.1 µM [rising, single point] | – |
| Cn1nccc1C(=O)NC1CCCc2c1cnn2-c1ccc(F)cc1F (centres undefined) | 0.562 µM [rising, full curve, poor fit] | – |
| COc1ccc(-c2cn[nH]c2-c2ccc(OCC(=O)NN)cc2O)cc1OC | 35.5 µM [falling, single point] | – |
| CC(=O)c1cccc(NC(=O)C(C)N2CCc3ccccc3C2)c1 (centres undefined) | 31.6 µM [rising, single point] | – |
| O=C(/C(=C/c1ccc(Cl)cc1)c1nc2ccccc2[nH]1)c1ccccc1 | 5.62 µM [rising, single point] | 3.55 µM [falling, partial curve, poor fit] |
| OCCNc1nc2ccccc2n1-c1ncnc2sc3c(c12)CCC3 | 6.51 µM [rising, single point] | – |
| COc1ccc(CCNC(=O)c2ccccc2)cc1 | 11.2 µM [falling, partial curve] | – |
| COc1ccc(CCNC(=O)CCSCc2ccccc2F)cc1OC | 0.1 µM [rising, full curve, poor fit] | – |
| O=C(C=C=Nc1ccccc1)C(=O)N=C=Cc1ccccc1 | 11.2 µM [falling, single point] | – |
| COc1ccc(C2CC(C(F)(F)F)n3nc(CO)c(Cl)c3N2)cc1OC (centres undefined) | 35.5 µM [rising, single point] | – |
| Cc1ccc(C(=O)COC(=O)c2nc(Cl)ccc2Cl)cc1 | 7.31 µM [rising, single point] | – |
| O=C(NNC(=S)Nc1ccccc1C(F)(F)F)c1cccnc1 | 14.1 µM [falling, partial curve, poor fit] | – |

| Compound | AC50 [1] | AC50 [2] |
| --- | --- | --- |
| O=C(Nc1ccc(Cl)cn1)C1CCN(c2ncnc3c2nc2n3CCCCC2)CC1 | – | 15.8 µM [rising, single point] |
| NC(=O)c1ccc(Oc2ccc3ccc(=O)oc3c2)c([N+](=O)[O-])c1 | 15.8 µM [falling, single point] | – |
| Cc1ccc2c(c1)c1c3n2CCN(C(=O)C2CC2)C3CCC1 (centres undefined) | 29.1 µM [rising, single point] | 32.6 µM [falling, partial curve, poor fit] |
| CC(C)OC(=O)c1ccc(NC(=O)c2ccccc2)cc1 | 0.517 µM [rising, full curve, poor fit] | – |
| CS(=O)(=O)c1ccc(S(=O)CC(=O)OCc2ccccc2)c([N+](=O)[O-])c1 (centres undefined) | 15.8 µM [falling, partial curve] | – |
| CC1=C/C(=N\NC(=O)c2ccc(O)cc2)CC1 | 8.2 µM [falling, partial curve] | – |
| COc1ccc(S(=O)(=O)NCC(c2ccco2)S(=O)(=O)c2ccc(C)cc2)cc1F (centres undefined) | 22.4 µM [falling, single point] | – |
| C=CCn1c(C)cc(C(=O)Cn2ncc(Cl)c(Cl)c2=O)c1C | 20.6 µM [falling, single point] | 16.4 µM [rising, partial curve, poor fit] |
| COc1cccc(/C=C/C(=O)NNC(=O)c2cc(C)oc2C)c1 | 10.3 µM [falling, partial curve, poor fit] | – |
| CC(C)c1ccc(C(N)=S)cc1 | 10 µM [rising, partial curve] | – |
| c1ccc(CSc2nnc(Cc3ccccn3)o2)cc1 | 12.6 µM [rising, partial curve, poor fit] | – |
| C=CCn1c(Oc2ccccc2F)nc2c1c(=O)n(C)c(=O)n2C | 1.26 µM [falling, full curve] | – |
| O=C1CN(c2ccccc2)C(=O)N1 | 12.6 µM [rising, partial curve, poor fit] | – |
| COc1ccccc1/C=N/NC(=S)Nc1cccnc1 | 0.562 µM [falling, full curve, poor fit] | 3.55 µM [falling, full curve] |
| CCOC(=O)C1=C(c2ccccc2)NC(=S)NC1c1ccc(C)c([N+](=O)[O-])c1 (centres undefined) | 29.1 µM [falling, single point] | – |
| COc1ccc2nc(NC(=O)c3ccccc3F)sc2c1 | 3.55 µM [falling, partial curve] | – |
| O=C(CN(Cc1ccco1)C(=O)c1ccc(Cl)cc1)Nc1ccc(Cl)c(Cl)c1 | 11.6 µM [rising, partial curve] | – |
| COC(=O)c1c(NC(=O)c2ccco2)sc(C)c1C | 1.16 µM [falling, full curve] | – |
| COCCN(C(=O)CCCc1nc2ccccc2s1)c1c(N)n(CC(C)C)c(=O)[nH]c1=O | 23.1 µM [rising, partial curve, poor fit] | – |
| CCNC(=O)NC(=O)CSc1nnc(-c2c[nH]c3ccccc23)o1 | 11.2 µM [falling, single point] | – |
| O=C1CCc2cc(S(=O)(=O)NCCC(=O)NC3CCN(Cc4ccccc4)CC3)ccc2N1 | 35.5 µM [rising, single point] | – |

| Compound | AC50 [1] | AC50 [2] |
| --- | --- | --- |
| Cc1c(Cl)cccc1NC(=O)CC1Oc2ccccc2NC1=O (centres undefined) | 15.8 µM [falling, single point] | – |
| CCCCOC(=O)Nc1nc(CC(=O)OCC)cs1 | 9.2 µM [rising, partial curve] | – |
| O=S(=O)(Nc1ccc2c3c(cccc13)CC2)c1ccc(F)cc1 | 20 µM [falling, partial curve, poor fit] | – |
| N#Cc1c(N)nc(SCc2ccncc2)c(C#N)c1-c1cccs1 | 18.4 µM [falling, partial curve] | – |
| COc1cc(CO)c(OC)c([N+](=O)[O-])c1 | – | 31.6 µM [falling, partial curve, poor fit] |
| CC(C)(C)C1CCC(=O)N(CCSc2ccccc2)CC1 (centres undefined) | 3.55 µM [rising, partial curve, poor fit] | – |
| Cc1cc(C)n2nc(CC#N)c(C#N)c2n1 | 2.82 µM [falling, partial curve, poor fit] | 3.98 µM [falling, partial curve, poor fit] |
| O=Cc1ccc(N2CCCC2)c(F)c1 | 10.3 µM [falling, partial curve, poor fit] | – |
| COc1ccccc1N1CCN(c2nc3c(C)cccn3c(=O)c2C=O)CC1 | 3.55 µM [rising, full curve, poor fit] | – |
| CCCCn1c(-c2nn(C)cc2Cl)n[nH]c1=S | 5.01 µM [rising, single point] | – |
| CSc1ccc(C(=O)C2CCCN(C(=O)c3cc4cc(F)ccc4[nH]3)C2)cc1 (centres undefined) | 35.5 µM [rising, single point] | – |
| O=C(NCc1cccs1)c1ccc2c(=O)n3nc(Nc4ccccc4)sc3nc2c1 | 35.5 µM [falling, single point] | – |
| Cc1noc(C)c1COc1ccc(C(=O)N2CCN(S(=O)(=O)c3cccc(F)c3)CC2)cc1 | 0.231 µM [rising, full curve] | – |
| Cc1ccc2c(c1Br)C(O)(CC(=O)c1ccc(F)cc1)C(=O)N2 (centres undefined) | 11.2 µM [falling, partial curve, poor fit] | – |
| O=C1CCC(=O)N1c1cccc(-c2nc3ccccc3o2)c1 | 0.517 µM [falling, partial curve, poor fit] | – |
| COc1ccc(-c2cn[nH]c2-c2ccc(OC)cc2)cc1 | 10 µM [falling, partial curve, poor fit] | – |
| C/C(=N\NC(=O)c1ccc(Br)cc1)C1C(=O)c2ccccc2C1=O | 10.3 µM [falling, partial curve, poor fit] | – |
| COC(=O)c1ccc(NC(=O)c2ccc3nccnc3c2)cc1 | 17.8 µM [falling, partial curve, poor fit] | – |
| O=C(N/N=C/c1c(Cl)cccc1Cl)c1ccc(F)cc1 | 35.5 µM [falling, single point] | – |
| COc1cccc(NC(=O)N(C2CCCCC2)C(C)c2cccs2)c1 (centres undefined) | 14.1 µM [falling, single point] | – |

Reprinted from above, 17 compounds:

| Compound | AC50 [1] | AC50 [2] |
| --- | --- | --- |
| COc1ccc(CCNC(=O)c2ccccc2)cc1 | 11.2 µM [falling, partial curve] | – |
| COc1ccc(CCNC(=O)CCSCc2ccccc2F)cc1OC | 0.1 µM [rising, full curve, poor fit] | – |
| O=C(C=C=Nc1ccccc1)C(=O)N=C=Cc1ccccc1 | 11.2 µM [falling, single point] | – |
| COc1ccc(C2CC(C(F)(F)F)n3nc(CO)c(Cl)c3N2)cc1OC (centres undefined) | 35.5 µM [rising, single point] | – |
| Cc1ccc(C(=O)COC(=O)c2nc(Cl)ccc2Cl)cc1 | 7.31 µM [rising, single point] | – |
| O=C(NNC(=S)Nc1ccccc1C(F)(F)F)c1cccnc1 | 14.1 µM [falling, partial curve, poor fit] | – |
| O=C(Nc1ccc(Cl)cn1)C1CCN(c2ncnc3c2nc2n3CCCCC2)CC1 | – | 15.8 µM [rising, single point] |
| NC(=O)c1ccc(Oc2ccc3ccc(=O)oc3c2)c([N+](=O)[O-])c1 | 15.8 µM [falling, single point] | – |
| Cc1ccc2c(c1)c1c3n2CCN(C(=O)C2CC2)C3CCC1 (centres undefined) | 29.1 µM [rising, single point] | 32.6 µM [falling, partial curve, poor fit] |
| CC(C)OC(=O)c1ccc(NC(=O)c2ccccc2)cc1 | 0.517 µM [rising, full curve, poor fit] | – |
| CS(=O)(=O)c1ccc(S(=O)CC(=O)OCc2ccccc2)c([N+](=O)[O-])c1 (centres undefined) | 15.8 µM [falling, partial curve] | – |
| CC1=C/C(=N\NC(=O)c2ccc(O)cc2)CC1 | 8.2 µM [falling, partial curve] | – |
| COc1ccc(S(=O)(=O)NCC(c2ccco2)S(=O)(=O)c2ccc(C)cc2)cc1F (centres undefined) | 22.4 µM [falling, single point] | – |
| C=CCn1c(C)cc(C(=O)Cn2ncc(Cl)c(Cl)c2=O)c1C | 20.6 µM [falling, single point] | 16.4 µM [rising, partial curve, poor fit] |
| COc1cccc(/C=C/C(=O)NNC(=O)c2cc(C)oc2C)c1 | 10.3 µM [falling, partial curve, poor fit] | – |
| CC(C)c1ccc(C(N)=S)cc1 | 10 µM [rising, partial curve] | – |
| c1ccc(CSc2nnc(Cc3ccccn3)o2)cc1 | 12.6 µM [rising, partial curve, poor fit] | – |

— PubChem BioAssay AID493014 (National Center for Advancing Translational Sciences (NCATS), 2011)
